In PMC12579213 one finds binding data, which are given here for ten substances.

Sequences of proteins named here, by UniProt entry; tags and fusion partners are left off. A change or cut given only in a name is not applied to a line headed by its entry. Residues count along the entry.
UniProt P10301: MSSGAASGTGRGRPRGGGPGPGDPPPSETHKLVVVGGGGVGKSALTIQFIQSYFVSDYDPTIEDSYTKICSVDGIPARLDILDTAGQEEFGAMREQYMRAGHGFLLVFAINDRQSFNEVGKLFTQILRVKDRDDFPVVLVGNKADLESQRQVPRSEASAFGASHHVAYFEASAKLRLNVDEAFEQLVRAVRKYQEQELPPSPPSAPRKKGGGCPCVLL
UniProt P60953: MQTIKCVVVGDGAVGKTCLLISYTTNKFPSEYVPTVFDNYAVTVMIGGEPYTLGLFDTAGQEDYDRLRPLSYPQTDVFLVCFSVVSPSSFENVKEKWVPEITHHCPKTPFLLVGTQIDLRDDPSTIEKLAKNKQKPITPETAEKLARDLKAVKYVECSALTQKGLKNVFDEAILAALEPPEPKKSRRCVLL
UniProt O00401, residues 203-239: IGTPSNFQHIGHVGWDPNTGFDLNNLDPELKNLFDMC
UniProt Q13153, residues 69-108: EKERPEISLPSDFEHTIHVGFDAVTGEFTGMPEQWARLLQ
UniProt O75914, residues 65-89: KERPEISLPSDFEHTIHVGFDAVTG
UniProt P42768, residues 230-287: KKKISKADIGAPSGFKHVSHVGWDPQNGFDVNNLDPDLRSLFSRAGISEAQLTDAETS
UniProt Q13464, residues 934-1015: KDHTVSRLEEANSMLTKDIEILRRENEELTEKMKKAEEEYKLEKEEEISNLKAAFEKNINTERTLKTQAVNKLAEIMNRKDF
UniProt Q9Y4D1, residues 45-233: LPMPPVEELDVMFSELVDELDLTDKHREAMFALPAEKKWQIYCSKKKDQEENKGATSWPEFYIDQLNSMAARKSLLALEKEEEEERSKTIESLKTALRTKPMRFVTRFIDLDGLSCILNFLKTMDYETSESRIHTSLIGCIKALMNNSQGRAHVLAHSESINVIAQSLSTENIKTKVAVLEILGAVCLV
UniProt O60610, residues 63-260: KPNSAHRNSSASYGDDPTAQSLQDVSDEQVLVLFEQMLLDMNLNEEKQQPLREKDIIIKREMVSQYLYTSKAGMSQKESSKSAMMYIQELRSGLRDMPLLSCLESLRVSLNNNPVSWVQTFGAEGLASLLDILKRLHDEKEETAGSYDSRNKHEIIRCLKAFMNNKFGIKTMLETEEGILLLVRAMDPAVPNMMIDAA
UniProt Q96PY5, residues 23-276: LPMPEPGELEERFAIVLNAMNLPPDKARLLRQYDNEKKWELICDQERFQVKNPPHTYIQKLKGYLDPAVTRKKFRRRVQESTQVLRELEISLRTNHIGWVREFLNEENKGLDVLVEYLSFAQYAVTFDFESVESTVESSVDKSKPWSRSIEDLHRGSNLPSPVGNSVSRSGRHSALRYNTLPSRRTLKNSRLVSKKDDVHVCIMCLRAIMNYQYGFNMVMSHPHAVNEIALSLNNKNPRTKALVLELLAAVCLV
UniProt Q8IVF7, residues 27-278: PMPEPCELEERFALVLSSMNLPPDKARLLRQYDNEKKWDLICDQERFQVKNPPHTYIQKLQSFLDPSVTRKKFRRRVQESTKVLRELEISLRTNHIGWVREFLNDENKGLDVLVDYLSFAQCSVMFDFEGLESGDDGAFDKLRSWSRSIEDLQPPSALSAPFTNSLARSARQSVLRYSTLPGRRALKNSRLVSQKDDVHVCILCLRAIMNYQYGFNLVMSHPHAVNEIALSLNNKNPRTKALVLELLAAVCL
UniProt P61586: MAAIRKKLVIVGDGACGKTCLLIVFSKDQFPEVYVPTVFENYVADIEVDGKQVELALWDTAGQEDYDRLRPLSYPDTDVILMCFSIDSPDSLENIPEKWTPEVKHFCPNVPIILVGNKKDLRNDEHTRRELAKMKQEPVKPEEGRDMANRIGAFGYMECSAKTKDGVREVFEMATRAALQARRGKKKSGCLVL

These are yes or no findings as the source states them, for the method shown. For some assays here: Binding can be weak; no strength is given.

One experiment addresses DsRed-RRas (Q87L, ΔCAAX) (UniProt P10301). Kind of experiment: INSPECT (co-condensation of proteins fused to a tetrameric RFP and to ferritin, imaged in living cells); ternary format: fluorescent-protein-fused intermediate (YFP-Sos) co-expressed with Prey-CFP-FT and DsRed-Bait.
Take “YFP-Sos_(564-1050) (from UniProt Q07889 564-1050) (domain or fragment)”: the binding entry is given as “no binding”.

The target of another experiment is DsRed-Cdc42h (Q61L, ΔCAAX) (UniProt P60953). Kind of experiment: INSPECT (co-condensation of proteins fused to a tetrameric RFP and to ferritin, imaged in living cells); DsRed-small GTPase (bait) and effector-CFP-FT (prey) co-transfected; co-localized condensates counted; efficiency, SNR and protein interaction index (PI).
On to “CRIBN_(WASP)-CFP-FT (from UniProt O00401 203-239) (domain or fragment)”, for which the binding result is given as “binds”.

Take “CRIB_(PAK1)-CFP-FT (from UniProt Q13153 69-108) (domain or fragment)”: the binding result is “binds”.

Take “CRIB_(PAK3)-CFP-FT (from UniProt O75914 65-89) (domain or fragment)”: the binding entry is “binds”.

“CRIB_(WASP)-CFP-FT (from UniProt P42768 230-287) (domain or fragment)”: the binding result is reported as “binds”.

For the substance “GBD_(ROCK1)-CFP-FT (from UniProt Q13464 934-1015) (domain or fragment)”, the binding entry is recorded as “binds weakly”.

Regarding “RBD_(DAAM1)-CFP-FT (from UniProt Q9Y4D1 45-233) (domain or fragment)”, the binding entry is listed as “binds”.

For “RBD_(DIAPH1)-CFP-FT (from UniProt O60610 63-260) (domain or fragment)”, the binding result was “binds”.

Take “RBD_(FMNL2)-CFP-FT (from UniProt Q96PY5 23-276) (domain or fragment)”: the binding result is recorded as “binds”.

On to “RBD_(FMNL3)-CFP-FT (from UniProt Q8IVF7 27-278) (domain or fragment)”, for which the binding entry is given as “binds”.

For another experiment, the target named is DsRed-RhoA (Q63L, ΔCAAX) (UniProt P61586). The experiment is described as above.
With “GBD_(ROCK1)-CFP-FT (from UniProt Q13464 934-1015) (domain or fragment)”, the binding result is recorded as “binds”.
